Reference: PubChem BioAssay AID720505 (Drosophila RNAi Screening Center, 2013)
The deposit covers about 20,000 reagents; this is a random part of those that have a named target and a result. In the full data, about 2,100 (10%) got an active call. 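Raw plate signals without normalisation; calls rest on control-based scores that were not deposited; replicate 2 separates called from uncalled poorly.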 A number with no mark means an inactive call. No sequences are given here. The record does not give: the amount of reagent, the time to read-out.

Purpose: 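Knock-downs that reduce calcium influx once internal stores are emptied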 (primary screen)
System: Drosophila S2R+ cells
Reagent: long dsRNA against Drosophila genes
Conditions: thapsigargin (2 µM) in calcium-free buffer to empty internal stores, then 2 mM calcium added back
Detection: 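Fluo-4 signal in 384-well plates read on a FLIPR after thapsigargin (2 µM, calcium-free) store depletion and 2 mM calcium add-back; unnormalised mean endpoint per well; screen run twice, selected wells retested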
Scale: calcium signal and retest calcium signal: higher = more calcium entry after store depletion
Active means: 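About 1500 genes called as lowering calcium entry, by varying amounts, judged against per-plate control wells with STIM1 as positive and Rho1 as negative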
Calls: active = called as lowering calcium entry; inactive = not called

zen [DRSC12632] showed calcium signal, replicate 1 = 126; calcium signal, replicate 2 = 175. Sf3b1 [DRSC00535] showed calcium signal, replicate 1 = 32.2 (active); calcium signal, replicate 2 = 40.3. Silencing of CG7299 [DRSC03043] resulted in: calcium signal, replicate 1 = 194; calcium signal, replicate 2 = 177. cwo [DRSC17072] gave calcium signal, replicate 1 = 148; calcium signal, replicate 2 = 110. Bsg [DRSC01010] gave calcium signal, replicate 1 = 150; calcium signal, replicate 2 = 93.4. Bsg [DRSC01011] gave calcium signal, replicate 1 = 71.8 (active); calcium signal, replicate 2 = 78.6.

Depletion of CG11693 [DRSC14353] resulted in: calcium signal, replicate 1 = 90.8; calcium signal, replicate 2 = 151. Against ohgt [DRSC15521] the deposit lists calcium signal, replicate 1 = 97.1; calcium signal, replicate 2 = 78.2. With knock-down of RpL36A [DRSC03055] the results were calcium signal, replicate 1 = 141; calcium signal, replicate 2 = 201. CG9331 [DRSC03206] gave calcium signal, replicate 1 = 95.7; calcium signal, replicate 2 = 78.4. Against Nulp1 [DRSC09677], the entry reads calcium signal, replicate 1 = 94.1; calcium signal, replicate 2 = 116. Silencing of dnt [DRSC03522] resulted in: calcium signal, replicate 1 = 103; calcium signal, replicate 2 = 128.

Against crok [DRSC02593] the deposit lists calcium signal, replicate 1 = 100; calcium signal, replicate 2 = 164. crok [DRSC21349] showed calcium signal, replicate 1 = 140; calcium signal, replicate 2 = 87.3. Depletion of CG14160 [DRSC10161] came out at: calcium signal, replicate 1 = 96.3; calcium signal, replicate 2 = 109. After knock-down of CG10853 [DRSC08164], the record shows calcium signal, replicate 1 = 87.2; calcium signal, replicate 2 = 99.7. Knock-down of CG8388 [DRSC07157] resulted in: calcium signal, replicate 1 = 126; calcium signal, replicate 2 = 135. X11L [DRSC19958] gave calcium signal, replicate 1 = 149; calcium signal, replicate 2 = 132; retest calcium signal, replicate 1 = 123; retest calcium signal, replicate 2 = 119.

X11L [DRSC19959] showed calcium signal, replicate 1 = 117; calcium signal, replicate 2 = 82.7. pippin [DRSC04489] showed calcium signal, replicate 1 = 99.9; calcium signal, replicate 2 = 85.6. For CG34284 [DRSC14773] the deposit lists calcium signal, replicate 1 = 68.7 (active); calcium signal, replicate 2 = 108. With knock-down of CG30289 [DRSC03870], the screen gave calcium signal, replicate 1 = 88.1; calcium signal, replicate 2 = 9391. After knock-down of mRpL41 [DRSC06257], the record shows calcium signal, replicate 1 = 107; calcium signal, replicate 2 = 166. Silencing of Sgs5 [DRSC16862] came out at: calcium signal, replicate 1 = 146; calcium signal, replicate 2 = 161.

After knock-down of GLS [DRSC07261], the screen gave calcium signal, replicate 1 = 129; calcium signal, replicate 2 = 104. Depletion of CG15734 [DRSC19701] came out at: calcium signal, replicate 1 = 125; calcium signal, replicate 2 = 99.5. Silencing of CG14332 [DRSC14811] came out at: calcium signal, replicate 1 = 111; calcium signal, replicate 2 = 171. For Ir84a [DRSC12510] the deposit lists calcium signal, replicate 1 = 132; calcium signal, replicate 2 = 122.

2 entries from above, set out differently.
Gene	amplicon	calcium signal, replicate 1	calcium signal, replicate 2	retest calcium signal, replicate 1	retest calcium signal, replicate 2
CG30289	DRSC03870	88.1	9391		
mRpL41	DRSC06257	107	166		
